According to the supplement of paper PMC9233669:
Variants at the background level are over-represented here.

How the values were obtained:
[1] = test system: biotinyl-Leu-oxazolone; test: self-aminoacylation, catalytic enhancement (BLO) (fold over background); higher = more active; k-Seq, kA / k0A0; sequences stand for … in GGGAAUGGAUCCACAUCUACGAAUUC…UUCACUGCAGACUUGACGAAGCUG
Procedure, shortened: (§1)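 Mutagenized RNA pools with a 21-nt variable region (0.43 μM) reacted with each biotinyl-aminoacyl-oxazolone at 2–1250 μM. Reactions ran in 50 μL HEPES/NaCl/KCl/MgCl2/CaCl2 buffer with 5% acetonitrile, pH 6.9–7.0, for 90 minutes at room temperature. Streptavidin-captured RNA was quantified by triplicate qPCR and Illumina sequencing, and per-sequence fraction reacted was fit to a pseudo-first-order model with 1000 bootstraps. Catalytic enhancement is median kA divided by the uncatalyzed rate, the low-activity peak of a bimodal Gaussian fit.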

[2] = test system: biotinyl-Ile-oxazolone; test: self-aminoacylation, catalytic enhancement (BIO) (fold over background); higher = more active; k-Seq, kA / k0A0; sequences stand for … in GGGAAUGGAUCCACAUCUACGAAUUC…UUCACUGCAGACUUGACGAAGCUG
Procedure, shortened: as §1

[3] = test system: biotinyl-Phe-oxazolone; test: self-aminoacylation, catalytic enhancement (BFO) (fold over background); higher = more active; k-Seq, kA / k0A0; sequences stand for … in GGGAAUGGAUCCACAUCUACGAAUUC…UUCACUGCAGACUUGACGAAGCUG
Procedure, shortened: as §1

[4] = test system: biotinyl-Trp-oxazolone; test: self-aminoacylation, catalytic enhancement (BWO) (fold over background); higher = more active; k-Seq, kA / k0A0; sequences stand for … in GGGAAUGGAUCCACAUCUACGAAUUC…UUCACUGCAGACUUGACGAAGCUG
Procedure, shortened: as §1

[5] = test system: biotinyl-Val-oxazolone; test: self-aminoacylation, catalytic enhancement (BVO) (fold over background); higher = more active; k-Seq, kA / k0A0; sequences stand for … in GGGAAUGGAUCCACAUCUACGAAUUC…UUCACUGCAGACUUGACGAAGCUG
Procedure, shortened: as §1

[6] = test system: biotinyl-Met-oxazolone; test: self-aminoacylation, catalytic enhancement (BMO) (fold over background); higher = more active; k-Seq, kA / k0A0; sequences stand for … in GGGAAUGGAUCCACAUCUACGAAUUC…UUCACUGCAGACUUGACGAAGCUG
Procedure, shortened: as §1

AAGUUUGUUACUAGUCGCAAG [Fam3.1 aminoacylation ribozyme variant]
self-aminoacylation [1]: 1.06
self-aminoacylation [2]: 1.47
self-aminoacylation [3]: 1.95
self-aminoacylation [4]: 1.22
self-aminoacylation [5]: 1.18
self-aminoacylation [6]: 1.28

AAUACCCUGGUCAUCGACUGA [Fam2.1 aminoacylation ribozyme variant]
self-aminoacylation [1]: 0.662
self-aminoacylation [2]: 0.739
self-aminoacylation [3]: 0.32
self-aminoacylation [4]: 1.06
self-aminoacylation [5]: 0.741
self-aminoacylation [6]: 0.908

AAUCACCUAGGUCAACGGGUG [Fam2.2 aminoacylation ribozyme variant]
self-aminoacylation [1]: 3.39
self-aminoacylation [2]: 2.29
self-aminoacylation [3]: 10.3
self-aminoacylation [4]: 3.32
self-aminoacylation [5]: 2.77
self-aminoacylation [6]: 2.91

AAUUUUGCGAAUAGUCGCAAG [Fam3.1 aminoacylation ribozyme variant]
self-aminoacylation [1]: 1.6
self-aminoacylation [2]: 1.71
self-aminoacylation [3]: 1.48
self-aminoacylation [4]: 2
self-aminoacylation [5]: 1.54
self-aminoacylation [6]: 1.82

ACACACUUCAAGCAAUCCGUC [Fam1B.1 aminoacylation ribozyme variant]
self-aminoacylation [1]: 1.01
self-aminoacylation [2]: 1.38
self-aminoacylation [3]: 1.33
self-aminoacylation [4]: 1.77
self-aminoacylation [5]: 1.58
self-aminoacylation [6]: 1.2

ACACACUUCUAGCAAUCGGUC [Fam1B.1 aminoacylation ribozyme variant]
self-aminoacylation [1]: 0.879
self-aminoacylation [2]: 1.06
self-aminoacylation [3]: 1.23
self-aminoacylation [4]: 0.781
self-aminoacylation [5]: 1.01
self-aminoacylation [6]: 0.784

ACGUUUGCUAAUAGUCGGAAG [Fam3.1 aminoacylation ribozyme variant]
self-aminoacylation [1]: 0.62
self-aminoacylation [2]: 1.01
self-aminoacylation [3]: 3.98
self-aminoacylation [4]: 0.882
self-aminoacylation [5]: 0.983
self-aminoacylation [6]: 0.611

ACUACCCUGGUCAUCCAGUGA [Fam2.1 aminoacylation ribozyme variant]
self-aminoacylation [1]: 5.01
self-aminoacylation [2]: 3.37
self-aminoacylation [3]: 21.2
self-aminoacylation [4]: 5.86
self-aminoacylation [5]: 3.27
self-aminoacylation [6]: 5.05

ACUACCCUGUUCAUCGAGUGA [Fam2.1 aminoacylation ribozyme variant]
self-aminoacylation [1]: 3.27
self-aminoacylation [2]: 2.28
self-aminoacylation [3]: 6.68
self-aminoacylation [4]: 5.04
self-aminoacylation [5]: 2.33
self-aminoacylation [6]: 3.17

ACUCACCUAGGUAAUCGGGUG [Fam2.2 aminoacylation ribozyme variant]
self-aminoacylation [1]: 3.66
self-aminoacylation [2]: 3.22
self-aminoacylation [3]: 23.9
self-aminoacylation [4]: 4.3
self-aminoacylation [5]: 2.85
self-aminoacylation [6]: 4.2

ACUCACCUAGGUCAUCGGGUA [Fam2.2 aminoacylation ribozyme variant]
self-aminoacylation [1]: 27
self-aminoacylation [2]: 11.4
self-aminoacylation [3]: 157
self-aminoacylation [4]: 14.9
self-aminoacylation [5]: 10.1
self-aminoacylation [6]: 19.9

ACUCACCUAGGUCAUCGGGUC [Fam2.2 aminoacylation ribozyme variant]
self-aminoacylation [1]: 1.62
self-aminoacylation [2]: 1.51
self-aminoacylation [3]: 7.01
self-aminoacylation [4]: 1.6
self-aminoacylation [5]: 1.84
self-aminoacylation [6]: 2.24

AGGUUUGCUAAUACUCGCAAG [Fam3.1 aminoacylation ribozyme variant]
self-aminoacylation [1]: 0.706
self-aminoacylation [2]: 0.884
self-aminoacylation [3]: 0.881
self-aminoacylation [4]: 0.633
self-aminoacylation [5]: 0.766
self-aminoacylation [6]: 0.538

AGGUUUGCUAAUGGUCGCAAG [Fam3.1 aminoacylation ribozyme variant]
self-aminoacylation [1]: 0.773
self-aminoacylation [2]: 0.764
self-aminoacylation [3]: 1.03
self-aminoacylation [4]: 0.816
self-aminoacylation [5]: 0.685
self-aminoacylation [6]: 0.846

AGGUUUGCUAAUUGUCGCAAG [Fam3.1 aminoacylation ribozyme variant]
self-aminoacylation [1]: 1.04
self-aminoacylation [2]: 1.15
self-aminoacylation [3]: 1.3
self-aminoacylation [4]: 1.33
self-aminoacylation [5]: 0.975
self-aminoacylation [6]: 0.979

AGUACCCUGGUCACCGAGUGA [Fam2.1 aminoacylation ribozyme variant]
self-aminoacylation [1]: 9.52
self-aminoacylation [2]: 4.52
self-aminoacylation [3]: 54.5
self-aminoacylation [4]: 11.1
self-aminoacylation [5]: 4.11
self-aminoacylation [6]: 8.83

AGUCACCUAGGUCAUCGGGUA [Fam2.2 aminoacylation ribozyme variant]
self-aminoacylation [1]: 12.7
self-aminoacylation [2]: 6.85
self-aminoacylation [3]: 60
self-aminoacylation [4]: 9.54
self-aminoacylation [5]: 6.5
self-aminoacylation [6]: 11.6

AGUCACCUAGGUCAUCGUGUG [Fam2.2 aminoacylation ribozyme variant]
self-aminoacylation [1]: 1.59
self-aminoacylation [2]: 1.45
self-aminoacylation [3]: 7.83
self-aminoacylation [4]: 1.12
self-aminoacylation [5]: 1.31
self-aminoacylation [6]: 1.5

AUACACCUAGGUCAUCGUGUG [Fam2.2 aminoacylation ribozyme variant]
self-aminoacylation [1]: 1.11
self-aminoacylation [2]: 0.982
self-aminoacylation [3]: 0.628
self-aminoacylation [4]: 0.685
self-aminoacylation [5]: 0.98
self-aminoacylation [6]: 0.968

AUACUUCAAACAAUCCGUCUG [Fam1A.1 aminoacylation ribozyme variant]
self-aminoacylation [1]: 1.09
self-aminoacylation [2]: 1.04
self-aminoacylation [3]: 1.42
self-aminoacylation [4]: 1.17
self-aminoacylation [5]: 0.918
self-aminoacylation [6]: 1.05

AUACUUCAAACAAUCGCUCUG [Fam1A.1 aminoacylation ribozyme variant]
self-aminoacylation [1]: 0.689
self-aminoacylation [2]: 0.906
self-aminoacylation [3]: 1.42
self-aminoacylation [4]: 0.949
self-aminoacylation [5]: 0.809
self-aminoacylation [6]: 0.681

AUACUUCAAACAAUCGGCCUG [Fam1A.1 aminoacylation ribozyme variant]
self-aminoacylation [1]: 2.02
self-aminoacylation [2]: 1.68
self-aminoacylation [3]: 20.7
self-aminoacylation [4]: 15.5
self-aminoacylation [5]: 1.44
self-aminoacylation [6]: 1.69

AUACUUCAAAGAAUCGGUCUG [Fam1A.1 aminoacylation ribozyme variant]
self-aminoacylation [1]: 0.76
self-aminoacylation [2]: 0.748
self-aminoacylation [3]: 1.6
self-aminoacylation [4]: 1.38
self-aminoacylation [5]: 0.723
self-aminoacylation [6]: 0.702

AUACUUCAGACAAUCGGUCUG [Fam1A.1 aminoacylation ribozyme variant]
self-aminoacylation [1]: 1.02
self-aminoacylation [2]: 0.795
self-aminoacylation [3]: 1.01
self-aminoacylation [4]: 0.724
self-aminoacylation [5]: 0.811
self-aminoacylation [6]: 0.793

AUCACCCUGGUCAUCGAGAGA [Fam2.1 aminoacylation ribozyme variant]
self-aminoacylation [1]: 1.41
self-aminoacylation [2]: 1.69
self-aminoacylation [3]: 1.6
self-aminoacylation [4]: 0.96
self-aminoacylation [5]: 1.25
self-aminoacylation [6]: 1.41
